Values of other authors in US11007171B2, “Treatment and prevention of joint disorders” (Summit Innovation Labs, LLC, priority 2017, dated 2021).
For at least one compound, name, drawing or mass did not settle the structure.

How the values were obtained:
diabetic rats = conditions: oral, as olive leaves extract

C/C=C1/[C@H](O[C@@H]2O[C@H](CO)[C@@H](O)[C@H](O)[C@H]2O)OC=C(C(=O)OC)[C@H]1CC(=O)OCCc1ccc(O)c(O)c1 [oleuropein]
plasma concentrations of triglyceride, total cholesterol, LDL+VLDL cholesterol, free fatty acids, glucose, and leptin (HFD-fed mice; HFD-fed mice): significantly lower | body weight gain (HFD-fed mice; added to a high fat diet (HFD), mice): decreased | serum glucose, HbA1c, total cholesterol, triglycerides, urea, uric acid, creatinine, AST and ALT (diabetic rats): decreased | serum insulin (diabetic rats): increased
